From publication PMC8699488 (Cancers, 2021)

Experiment: general procedure: Fmoc solid-phase peptide synthesis; Fmoc-Asp(NovaSynTGA)-OAll resin; HBTU/DIPEA

Substance: CTH36-c(RGDfK)
- conjugation yield (conjugation step): 65%

Substance: c(RGDfK)-TCO
- step yield (late stage modification step): 50%
